Laboratory results published in article PMC9243396.
Results are given in words; binding and its absence hold for the method and conditions named. In cells and extracts the contact can be indirect. Some results given as binding are weak or reduced against the parent protein; the word gives no strength.

Chains of the proteins cited; added tags and fusions are not shown.
UniProt P40692: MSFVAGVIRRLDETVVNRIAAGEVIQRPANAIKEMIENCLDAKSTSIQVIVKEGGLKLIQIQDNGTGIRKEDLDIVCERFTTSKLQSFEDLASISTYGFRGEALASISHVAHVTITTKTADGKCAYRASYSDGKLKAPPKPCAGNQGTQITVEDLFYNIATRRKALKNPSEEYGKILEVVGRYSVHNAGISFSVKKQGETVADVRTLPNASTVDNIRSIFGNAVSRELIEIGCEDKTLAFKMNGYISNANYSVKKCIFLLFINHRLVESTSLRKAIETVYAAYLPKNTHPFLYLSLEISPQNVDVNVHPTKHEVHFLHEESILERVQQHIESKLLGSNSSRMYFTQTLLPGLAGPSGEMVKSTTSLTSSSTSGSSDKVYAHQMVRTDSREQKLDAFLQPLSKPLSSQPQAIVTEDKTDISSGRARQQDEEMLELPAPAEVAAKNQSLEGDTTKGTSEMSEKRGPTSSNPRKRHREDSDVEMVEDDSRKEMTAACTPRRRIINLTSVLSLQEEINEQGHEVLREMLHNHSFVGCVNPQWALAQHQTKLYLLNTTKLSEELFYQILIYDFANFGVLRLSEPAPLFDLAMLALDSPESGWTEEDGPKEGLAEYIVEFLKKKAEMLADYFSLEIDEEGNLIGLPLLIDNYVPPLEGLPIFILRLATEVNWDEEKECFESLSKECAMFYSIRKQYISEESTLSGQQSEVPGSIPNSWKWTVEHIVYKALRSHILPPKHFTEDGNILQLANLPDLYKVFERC
UniProt P43246: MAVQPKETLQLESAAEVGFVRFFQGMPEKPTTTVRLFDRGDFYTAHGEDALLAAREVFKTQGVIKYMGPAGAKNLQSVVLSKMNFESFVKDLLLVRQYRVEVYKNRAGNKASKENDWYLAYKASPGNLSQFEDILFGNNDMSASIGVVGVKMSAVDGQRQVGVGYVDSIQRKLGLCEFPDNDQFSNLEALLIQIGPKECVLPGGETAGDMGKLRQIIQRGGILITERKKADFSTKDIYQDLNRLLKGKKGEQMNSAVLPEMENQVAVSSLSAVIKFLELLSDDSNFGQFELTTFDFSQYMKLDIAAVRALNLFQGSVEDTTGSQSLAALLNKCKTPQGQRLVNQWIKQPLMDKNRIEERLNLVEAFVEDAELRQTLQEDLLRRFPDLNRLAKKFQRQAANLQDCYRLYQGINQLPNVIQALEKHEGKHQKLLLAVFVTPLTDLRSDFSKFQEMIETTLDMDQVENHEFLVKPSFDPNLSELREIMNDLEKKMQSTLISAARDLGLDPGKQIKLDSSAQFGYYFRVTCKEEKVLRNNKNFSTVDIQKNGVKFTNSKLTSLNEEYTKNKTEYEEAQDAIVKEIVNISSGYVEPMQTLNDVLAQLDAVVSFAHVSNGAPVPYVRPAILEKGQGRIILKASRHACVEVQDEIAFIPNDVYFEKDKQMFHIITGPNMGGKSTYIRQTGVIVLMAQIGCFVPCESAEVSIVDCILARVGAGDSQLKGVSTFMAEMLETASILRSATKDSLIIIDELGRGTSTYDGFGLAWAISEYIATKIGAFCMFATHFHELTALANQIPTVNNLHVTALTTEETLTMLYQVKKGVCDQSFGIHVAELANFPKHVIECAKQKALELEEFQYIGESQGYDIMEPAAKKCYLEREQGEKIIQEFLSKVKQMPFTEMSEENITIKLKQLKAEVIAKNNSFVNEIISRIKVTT
UniProt Q149N8: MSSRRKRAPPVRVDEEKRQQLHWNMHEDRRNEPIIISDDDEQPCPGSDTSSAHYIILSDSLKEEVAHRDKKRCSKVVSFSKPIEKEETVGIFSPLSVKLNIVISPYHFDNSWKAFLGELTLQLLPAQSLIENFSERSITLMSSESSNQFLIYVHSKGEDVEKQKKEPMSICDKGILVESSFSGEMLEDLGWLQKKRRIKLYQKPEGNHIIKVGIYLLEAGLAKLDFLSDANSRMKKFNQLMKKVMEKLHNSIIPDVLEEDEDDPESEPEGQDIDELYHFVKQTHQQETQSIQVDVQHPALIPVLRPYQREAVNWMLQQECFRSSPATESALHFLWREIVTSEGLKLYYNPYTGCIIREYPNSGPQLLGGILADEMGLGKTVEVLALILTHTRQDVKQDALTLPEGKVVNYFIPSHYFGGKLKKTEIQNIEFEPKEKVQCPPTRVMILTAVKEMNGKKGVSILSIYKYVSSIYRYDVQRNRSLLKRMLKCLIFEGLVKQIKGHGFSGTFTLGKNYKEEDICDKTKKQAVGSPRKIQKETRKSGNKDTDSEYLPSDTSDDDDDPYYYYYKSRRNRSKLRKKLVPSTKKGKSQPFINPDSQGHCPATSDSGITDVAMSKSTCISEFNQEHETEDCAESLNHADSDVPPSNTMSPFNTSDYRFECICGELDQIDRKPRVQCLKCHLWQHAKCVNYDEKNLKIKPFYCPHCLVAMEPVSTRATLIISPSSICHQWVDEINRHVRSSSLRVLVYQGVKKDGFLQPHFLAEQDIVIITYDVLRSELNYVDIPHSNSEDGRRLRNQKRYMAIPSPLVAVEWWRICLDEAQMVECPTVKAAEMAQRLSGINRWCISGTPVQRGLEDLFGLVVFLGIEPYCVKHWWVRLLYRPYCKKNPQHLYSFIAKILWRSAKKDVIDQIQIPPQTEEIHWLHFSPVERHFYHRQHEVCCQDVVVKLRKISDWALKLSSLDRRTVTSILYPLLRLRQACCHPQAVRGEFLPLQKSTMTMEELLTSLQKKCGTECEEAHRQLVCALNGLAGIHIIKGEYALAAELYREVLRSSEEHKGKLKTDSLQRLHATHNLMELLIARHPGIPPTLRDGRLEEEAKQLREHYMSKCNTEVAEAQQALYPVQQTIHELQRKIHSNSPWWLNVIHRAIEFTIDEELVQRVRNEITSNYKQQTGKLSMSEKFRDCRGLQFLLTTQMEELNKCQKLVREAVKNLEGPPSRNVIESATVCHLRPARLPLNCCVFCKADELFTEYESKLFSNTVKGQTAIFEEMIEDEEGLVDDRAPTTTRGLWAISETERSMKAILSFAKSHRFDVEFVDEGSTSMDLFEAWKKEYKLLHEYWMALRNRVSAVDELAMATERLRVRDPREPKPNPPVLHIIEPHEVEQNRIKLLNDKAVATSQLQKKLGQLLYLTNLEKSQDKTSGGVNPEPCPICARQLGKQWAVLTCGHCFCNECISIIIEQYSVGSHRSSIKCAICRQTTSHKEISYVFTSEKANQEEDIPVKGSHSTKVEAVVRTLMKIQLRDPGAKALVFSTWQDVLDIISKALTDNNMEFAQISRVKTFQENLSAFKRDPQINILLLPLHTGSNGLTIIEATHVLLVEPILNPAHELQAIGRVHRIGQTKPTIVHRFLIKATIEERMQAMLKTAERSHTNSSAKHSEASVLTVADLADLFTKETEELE

Legend:
[1] = biological target: MLH1 (endogenous, HeLa) (human (endogenous in HeLa)) (UniProt P40692); assay: condition: only cells in G1 or G2/M after release from the double thymidine block; co-IP; HeLa synchronised by double thymidine block, released with DMSO or 0.2 µM MNNG; nuclear extracts at time points in G1 or G2/M; anti-MLH1 beads; immunoblot for SHPRH
[2] = biological target: MSH2 (endogenous, HeLa) (human (endogenous in HeLa)) (UniProt P43246); assay: co-IP; HeLa nuclear fractions, cells treated with DMSO or 30 μM MNNG; anti-MLH1 or anti-MSH2 on magnetic protein A/G beads, 4°C overnight, increasing salt washes; immunoblot for HLTF and SHPRH
[3] = biological target: MLH1 (endogenous, HeLa) (human (endogenous in HeLa)) (UniProt P40692); assay: as above
[4] = biological target: MLH1 (endogenous, HeLa) (human (endogenous in HeLa)) (UniProt P40692); assay: co-IP; HeLa synchronised by double thymidine block, released with DMSO or 0.2 µM MNNG; nuclear extract at the 6-h time point (S phase); anti-MLH1 beads; immunoblot for SHPRH

SNF2 Histone Linker PHD Ring Helicase (SHPRH) (endogenous, HeLa) (from UniProt Q149N8 1-1683)
binding [1]: no binding
binding [2]: no binding
binding [3]: binds
binding [4]: binds
